The other results are listed elsewhere or left out. The list holds hits alone, and they repeat only in part.

Chains of the proteins cited; added tags and fusions are not shown.
ATP6V0D1, P61421, UniProt P61421, whole entry: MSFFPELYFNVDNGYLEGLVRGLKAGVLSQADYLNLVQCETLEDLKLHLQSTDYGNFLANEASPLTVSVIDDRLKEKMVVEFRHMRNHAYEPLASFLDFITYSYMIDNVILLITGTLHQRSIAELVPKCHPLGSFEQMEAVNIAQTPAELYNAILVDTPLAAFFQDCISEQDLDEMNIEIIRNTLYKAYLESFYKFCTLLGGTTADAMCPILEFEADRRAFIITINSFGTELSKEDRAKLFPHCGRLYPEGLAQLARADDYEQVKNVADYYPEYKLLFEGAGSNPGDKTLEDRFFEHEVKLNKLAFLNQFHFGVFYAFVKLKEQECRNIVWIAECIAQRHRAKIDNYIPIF
CDC27, P30260, UniProt P30260, whole entry: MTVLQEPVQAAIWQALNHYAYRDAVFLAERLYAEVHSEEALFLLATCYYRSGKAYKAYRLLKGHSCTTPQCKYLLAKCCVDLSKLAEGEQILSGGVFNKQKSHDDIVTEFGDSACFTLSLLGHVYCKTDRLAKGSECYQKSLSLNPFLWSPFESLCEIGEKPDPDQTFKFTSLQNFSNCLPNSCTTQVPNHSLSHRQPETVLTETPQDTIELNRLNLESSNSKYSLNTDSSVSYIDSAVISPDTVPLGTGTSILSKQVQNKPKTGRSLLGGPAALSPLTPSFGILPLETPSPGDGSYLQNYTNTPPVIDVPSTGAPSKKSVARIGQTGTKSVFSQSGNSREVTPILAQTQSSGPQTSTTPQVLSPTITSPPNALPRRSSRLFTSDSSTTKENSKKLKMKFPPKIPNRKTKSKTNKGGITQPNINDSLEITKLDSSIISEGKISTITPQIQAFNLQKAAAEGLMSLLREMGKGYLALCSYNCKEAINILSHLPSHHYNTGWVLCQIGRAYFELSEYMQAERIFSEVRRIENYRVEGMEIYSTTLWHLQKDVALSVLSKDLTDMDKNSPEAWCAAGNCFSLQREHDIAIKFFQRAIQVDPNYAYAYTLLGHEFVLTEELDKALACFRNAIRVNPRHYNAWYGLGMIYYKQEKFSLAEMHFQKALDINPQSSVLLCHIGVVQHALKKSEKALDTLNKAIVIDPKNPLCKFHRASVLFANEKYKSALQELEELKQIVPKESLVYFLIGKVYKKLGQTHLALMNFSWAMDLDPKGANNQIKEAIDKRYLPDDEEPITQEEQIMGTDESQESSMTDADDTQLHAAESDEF
NCAPH, Q15003, UniProt Q15003, whole entry: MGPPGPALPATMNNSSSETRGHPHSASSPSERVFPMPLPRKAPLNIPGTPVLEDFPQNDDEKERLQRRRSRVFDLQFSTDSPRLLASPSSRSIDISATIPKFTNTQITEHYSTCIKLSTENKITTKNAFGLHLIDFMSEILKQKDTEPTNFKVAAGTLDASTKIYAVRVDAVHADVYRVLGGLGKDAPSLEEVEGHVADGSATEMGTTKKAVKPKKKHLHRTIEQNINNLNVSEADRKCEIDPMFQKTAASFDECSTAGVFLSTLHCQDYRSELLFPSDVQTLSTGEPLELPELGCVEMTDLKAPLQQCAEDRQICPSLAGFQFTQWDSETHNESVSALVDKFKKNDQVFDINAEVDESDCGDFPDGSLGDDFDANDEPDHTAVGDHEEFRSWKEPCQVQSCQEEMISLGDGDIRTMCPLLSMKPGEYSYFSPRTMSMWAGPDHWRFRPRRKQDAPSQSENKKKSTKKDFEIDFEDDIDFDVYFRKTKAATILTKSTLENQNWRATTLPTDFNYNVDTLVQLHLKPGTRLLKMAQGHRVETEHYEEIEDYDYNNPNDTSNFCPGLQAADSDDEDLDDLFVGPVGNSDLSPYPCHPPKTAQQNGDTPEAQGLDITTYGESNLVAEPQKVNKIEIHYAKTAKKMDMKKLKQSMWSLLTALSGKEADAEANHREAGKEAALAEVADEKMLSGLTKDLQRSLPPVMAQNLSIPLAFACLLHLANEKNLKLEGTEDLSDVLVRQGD
NDUFB7, P17568, UniProt P17568, whole entry: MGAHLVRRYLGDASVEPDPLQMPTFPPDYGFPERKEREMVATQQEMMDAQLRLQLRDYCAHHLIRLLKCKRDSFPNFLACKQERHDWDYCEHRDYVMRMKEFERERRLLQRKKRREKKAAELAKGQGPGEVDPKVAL
RFC4, P35249, UniProt P35249, whole entry: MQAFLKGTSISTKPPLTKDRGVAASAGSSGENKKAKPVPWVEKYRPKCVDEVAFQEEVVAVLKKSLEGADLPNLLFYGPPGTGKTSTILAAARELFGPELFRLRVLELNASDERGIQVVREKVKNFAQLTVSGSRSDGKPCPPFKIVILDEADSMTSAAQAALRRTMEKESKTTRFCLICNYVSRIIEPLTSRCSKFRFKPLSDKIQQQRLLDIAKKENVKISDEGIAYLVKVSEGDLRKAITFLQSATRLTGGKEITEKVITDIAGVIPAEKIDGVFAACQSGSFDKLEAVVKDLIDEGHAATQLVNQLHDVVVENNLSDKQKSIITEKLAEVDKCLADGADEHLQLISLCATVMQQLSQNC

Assay in all cases: PRISMA enrichment of interactor (LFQ) in peptide spot vs all other peptide spots (log2 fold change); higher = stronger / more specific binding of the interactor to the peptide
Assay [1] addresses ATP6V0D1, P61421. The procedure: (§1)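 PRISMA: 15-aa overlapping tiles (offset 8 aa) of 60 microproteins, plus SOS1/GLUT1 control peptides, were spot-synthesized on cellulose membranes in triplicate. Membranes were incubated with benzonase-treated HEK293T lysate, and bound proteins were identified by LC-MS/MS with LFQ. Enrichment is the log2 fold change of each protein in one spot versus all other spots. Only interactors passing the significance cutoff are listed.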

The target in assay [2] is C19orf53, Q9UNZ5. The procedure:
as §1

The target of assay [3] is CDC27, P30260. The procedure:
as §1

Assay [4] concerns the target CPSF3, Q9UKF6. As for the experimental part: as §1
The target in assay [5] is CSTF1, Q05048. The procedure:
as §1

The target in assay [6] is GRB2, P62993. As for the experimental part: as §1
In assay [7] the target is H2AFV, Q71UI9. The procedure:
as §1

Assay [8] concerns the target HMGA1, P17096. As for the experimental part: as §1
The target in assay [9] is LMNA, P02545. As for the experimental part: as §1
For assay [10], the target named is MEPCE, Q7L2J0. As for the experimental part:
as §1

In assay [11] the target is MPDU1, O75352. As for the experimental part:
as §1

Assay [12] addresses MRPL39, Q9NYK5. As for the experimental part:
as §1

The target of assay [13] is MRPS27, Q92552. As for the experimental part:
as §1

In assay [14] the target is NCAPH, Q15003. As for the experimental part: as §1
Assay [15] deals with NDUFB7, P17568. The procedure: as §1
Assay [16] concerns the target NUP107, P57740. The procedure: as §1
Assay [17] deals with PPAN-P2RY11. As for the experimental part:
as §1

Assay [18] has as its target PSMA5, P28066. As for the experimental part: as §1
Assay [19] addresses RFC4, P35249. The procedure: as §1
Assay [20] addresses SCAMP3, O14828. The procedure: as §1

Turning to EVGRRVKEMVMLVAP [IDI2-AS1], the “PRISMA enrichment of interactor (log2)” value amounted to 7.43 in [1]; 9.32 in assay [2]; 6.42 in assay [3]; 5.15 in assay [4]; 3.95 in assay [5]; 5.96 in assay [6]. For the same molecule, the “PRISMA enrichment of interactor (log2)” value came to 4.98 in assay [7]; 4.25 in assay [8]; 5.12 in [9]; 12.5 in assay [10]; 3.72 in assay [11]; 5.55 in assay [12]. The “PRISMA enrichment of interactor (log2)” value stood at 5.78 in assay [13]; 6.49 in assay [14]; 4.67 in assay [15]; 5.6 in assay [16]; 4.79 in assay [17]; 8.99 in assay [18]. Moreover, the “PRISMA enrichment of interactor (log2)” value in assay [19] was 5.73; in assay [20], 3.75.

(Values after the supplement of paper PMC10032668.)
